Results are given in words; binding and its absence hold for the method and conditions named. In cells and extracts the contact can be indirect. Some results given as binding are weak or reduced against the parent protein; the word gives no strength.
How the values were obtained:
[1] = molecular target: endogenous CELF6 (human (endogenous in the cells used; all cell lines of the paper are human)) (UniProt Q96J87); experiment: co-IP; both proteins endogenous; cells lysed 48 h after passage, CELF6 antibody added, Protein A immunoaffinity gel beads added 4 h later, immunoblotting
[2] = molecular target: Flag-tagged CELF6 (human) (UniProt Q96J87); experiment: co-IP; cells lysed 48 h after transfection; lysate (2 mg/mL protein; 50 mM Tris-HCl pH 7.5, 0.1% SDS, 1% Triton X-100, 150 mM NaCl) incubated with anti-Flag magnetic beads (30 μl) overnight at 4 °C, washed three times with lysis buffer, immunoblotting

Protein sequences, listed by entry. Tags and fused reporters are not part of them. Lines headed by an entry give the natural chain unless they say otherwise; changes in a name come on top. Chains listed by the source or under a name are the forms on record and can include a tag or linker.
UniProt Q96J87: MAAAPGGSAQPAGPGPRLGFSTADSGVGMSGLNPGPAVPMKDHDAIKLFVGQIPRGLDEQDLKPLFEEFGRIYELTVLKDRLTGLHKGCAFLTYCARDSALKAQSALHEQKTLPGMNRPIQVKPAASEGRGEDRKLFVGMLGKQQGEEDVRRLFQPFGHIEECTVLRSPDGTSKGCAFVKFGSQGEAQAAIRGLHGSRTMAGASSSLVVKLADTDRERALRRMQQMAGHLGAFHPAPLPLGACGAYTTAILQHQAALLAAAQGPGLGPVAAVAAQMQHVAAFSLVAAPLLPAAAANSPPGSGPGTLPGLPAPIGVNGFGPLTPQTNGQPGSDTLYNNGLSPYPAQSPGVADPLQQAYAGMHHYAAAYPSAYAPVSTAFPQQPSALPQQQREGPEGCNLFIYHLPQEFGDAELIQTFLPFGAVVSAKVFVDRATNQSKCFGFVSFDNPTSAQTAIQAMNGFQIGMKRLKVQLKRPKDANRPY
Flag-tagged CELF6 (Q96J87, form named): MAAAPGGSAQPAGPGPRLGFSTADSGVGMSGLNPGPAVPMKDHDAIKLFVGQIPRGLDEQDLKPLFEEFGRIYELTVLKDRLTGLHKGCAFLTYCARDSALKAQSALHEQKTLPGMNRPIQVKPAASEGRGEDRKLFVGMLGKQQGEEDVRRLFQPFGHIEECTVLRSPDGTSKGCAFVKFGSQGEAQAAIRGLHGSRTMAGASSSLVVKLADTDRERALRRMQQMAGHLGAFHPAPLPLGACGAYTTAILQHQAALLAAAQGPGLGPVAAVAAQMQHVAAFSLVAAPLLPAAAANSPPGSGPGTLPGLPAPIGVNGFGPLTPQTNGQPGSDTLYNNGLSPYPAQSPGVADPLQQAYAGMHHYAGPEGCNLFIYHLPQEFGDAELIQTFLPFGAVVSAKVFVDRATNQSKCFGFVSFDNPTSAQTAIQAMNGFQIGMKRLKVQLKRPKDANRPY
UniProt Q00987: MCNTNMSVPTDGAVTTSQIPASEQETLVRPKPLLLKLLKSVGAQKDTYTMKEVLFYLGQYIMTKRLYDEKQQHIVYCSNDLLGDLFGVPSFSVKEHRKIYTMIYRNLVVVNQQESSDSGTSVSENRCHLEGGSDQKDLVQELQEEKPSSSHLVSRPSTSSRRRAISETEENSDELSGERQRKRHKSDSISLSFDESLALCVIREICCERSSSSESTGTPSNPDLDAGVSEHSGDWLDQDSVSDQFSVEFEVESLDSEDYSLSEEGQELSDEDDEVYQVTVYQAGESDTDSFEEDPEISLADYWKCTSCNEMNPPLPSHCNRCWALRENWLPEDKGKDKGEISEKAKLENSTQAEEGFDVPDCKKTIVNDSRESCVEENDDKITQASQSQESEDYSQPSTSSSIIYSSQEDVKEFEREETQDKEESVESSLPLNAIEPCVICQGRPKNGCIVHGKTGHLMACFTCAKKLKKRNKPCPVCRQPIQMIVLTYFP

Substance: endogenous MDM2 (from UniProt Q00987 1-491)
- binding [1]: binds
- binding [2]: binds

— paper PMC12540984
